Experimental data reported in article PMC2832016.
These are yes or no findings as the source states them, for the method shown. In cells and extracts the contact can be indirect. Some binding calls cover weakened binding; strength is not graded here. Tags and fused reporters may be left off the sequences shown.

B1: 58K/formiminotransferase cyclodeaminase (FTCD) (protein, UniProt O88618 1-541)
chain: MSQLVECVPNFSEGNNQEVIDAISQAISQTPGCVLLDVDAGPSTNRTVYTFVGQPECVVEGALSAARTASQLIDMRKHKGEHPRMGALDVCPFIPVRGVSMDECVLCAKAFGQRLAEELNVPVYLYGEAAQMPSRQTLPAIRAGEYEALPEKLKQAEWVPDFGPSSFVPSWGATVTGARKFLIAFNINLLSTKEQAHRIALNLREQGRGKDQPGRLKKVQGIGWYLEEKNLAQVSTNLLDFEVTALHTVYEEARREAQELNLPVVGSQLVGLVPLKALLDAAAFYCDKEKLFVLEEEHRIRLVVNRLGLDSLAPFDPKERIIEYLVPDSGPEQSLLDASLRAFVREVGARSAAPGGGSVAAAVAALGAALASMVGQMTYGRRQFDHLDSTMRRLIPPFHAASAQLTSLVDADARAFAACLGAIKLPKNTPEERDRRTCALQEGLRQAVAVPLKLAETVSQLWPALQELAQCGNLSCLSDLQVAAKALETGVFGAYFNVLINLKDMTDDVFKEKTRHRISSLLQEAKTQAALVLGSLEARKE
B2: βCOP (protein, UniProt P23514 1-953)
chain: MTAAENVCYTLINVPMDSEPPSEISLKNDLEKGDVKSKTEALKKVIIMILNGEKLPGLLMTIIRFVLPLQDHTIKKLLLVFWEIVPKTTPDGRLLHEMILVCDAYRKDLQHPNEFIRGSTLRFLCKLKEAELLEPLMPAIRACLEHRHSYVRRNAVLAIYTIYRNFENLIPDAPELIHDFLVNEKDASCKRNAFMMLIHADQDRALDYLSTCIDQVQTFGDILQLVIVELIYKVCHANPSERARFIRCIYNLLQSSSPAVKYEAAGTLVTLSSAPTAIKAAAQCYIDLIIKESDNNVKLIVLDRLVELKEHPAHERVLQDLVMDILRVLSTPDLEVRKKTLQLALDLVSSRNVEELVIVLKKEVIKTNNVSEHEDTDKYRQLLVRTLHSCSVRFPDMAANVIPVLMEFLSDSNEAAAADVLEFVREAIQRFDNLRMLIVEKMLEVFHAIKSVKIYRGALWILGEYCSTKEDIQSVMTEVRRSLGEIPIVESEIKKEAGELKPEEEITVGPVQKLVTEMGTYATQSALSSSRPTKKEEDRPPLRGFLLDGDFFVAASLATTLTKIALRYVALVQEKKKQNSFVAEAMLLMATILHLGKSSLPKKPITDDDVDRISLCLKVLSECSPLMNDIFNKECRQSLSQMLSAKLEEEKLSQKKESEKRNVTVQPDDPISFMQLTAKNEMNCKEDQFQLSLLAAMGNTQRKEAADPLASKLNKVTQLTGFSDPVYAEAYVHVNQYDIVLDVLVVNQTSDTLQNCTLELATLGDLKLVEKPSPLTLAPHDFANIKANVKVASTENGIIFGNIVYDVSGAASDRNCVVLSDIHIDIMDYIQPATCTDAEFRQMWAEFEWENKVTVNTNVTDLNDYLQHILKSTNMKCLTPEKALSGYCGFMAANLYARSIFGEDALANVSIEKPVHQGPDAAVTGHIRIRAKSQGMALSLGDKINLSQKKTSL

Molecular target: T1, GST-tagged full-length Scyl1 (Scy1-like 1) (UniProt Q9EQC5)
T1 sequence: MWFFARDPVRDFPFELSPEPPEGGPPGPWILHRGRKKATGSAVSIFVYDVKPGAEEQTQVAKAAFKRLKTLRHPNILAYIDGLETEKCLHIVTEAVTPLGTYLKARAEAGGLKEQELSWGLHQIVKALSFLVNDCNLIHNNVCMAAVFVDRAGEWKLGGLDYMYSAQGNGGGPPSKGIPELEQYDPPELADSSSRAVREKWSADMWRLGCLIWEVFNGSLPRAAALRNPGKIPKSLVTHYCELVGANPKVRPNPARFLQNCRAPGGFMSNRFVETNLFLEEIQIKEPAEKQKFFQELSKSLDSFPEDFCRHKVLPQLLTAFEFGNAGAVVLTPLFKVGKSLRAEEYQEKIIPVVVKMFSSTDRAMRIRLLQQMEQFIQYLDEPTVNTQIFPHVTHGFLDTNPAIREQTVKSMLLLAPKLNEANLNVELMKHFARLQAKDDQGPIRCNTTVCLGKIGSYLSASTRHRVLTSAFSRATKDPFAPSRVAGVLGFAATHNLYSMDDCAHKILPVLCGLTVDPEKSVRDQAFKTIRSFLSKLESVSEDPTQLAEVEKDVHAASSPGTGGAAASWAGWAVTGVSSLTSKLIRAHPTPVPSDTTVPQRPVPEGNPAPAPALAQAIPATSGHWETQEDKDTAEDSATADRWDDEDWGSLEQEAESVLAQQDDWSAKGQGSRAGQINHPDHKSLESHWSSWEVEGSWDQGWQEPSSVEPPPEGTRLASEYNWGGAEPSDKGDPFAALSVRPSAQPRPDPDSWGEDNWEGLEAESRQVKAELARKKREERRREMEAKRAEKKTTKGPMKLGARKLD
Assay: pull-down; GST-Scyl1 fusion proteins pre-coupled to glutathione-Sepharose beads, incubated 3 h at 4°C with 1 ml rat liver extract (1 mg/ml; 10 mM HEPES pH 7.4, 1% Triton X-100, 50 mM NaCl); washed 3 times; Western blot; only the target purified

Row | Binder | binding
1 | B1 | binds
2 | B2 | binds
